Assay results from patent US7253286B2, “Nitrogen-containing aromatic derivatives” (Eisai Co., Ltd, priority 2000, dated 2007).
The structures given here were assigned with low confidence; some may be wrong.

The chains behind the UniProt entries cited, without tags or fusion partners. Residues count along the entry.
UniProt P35968, 786-1356 limits assumed: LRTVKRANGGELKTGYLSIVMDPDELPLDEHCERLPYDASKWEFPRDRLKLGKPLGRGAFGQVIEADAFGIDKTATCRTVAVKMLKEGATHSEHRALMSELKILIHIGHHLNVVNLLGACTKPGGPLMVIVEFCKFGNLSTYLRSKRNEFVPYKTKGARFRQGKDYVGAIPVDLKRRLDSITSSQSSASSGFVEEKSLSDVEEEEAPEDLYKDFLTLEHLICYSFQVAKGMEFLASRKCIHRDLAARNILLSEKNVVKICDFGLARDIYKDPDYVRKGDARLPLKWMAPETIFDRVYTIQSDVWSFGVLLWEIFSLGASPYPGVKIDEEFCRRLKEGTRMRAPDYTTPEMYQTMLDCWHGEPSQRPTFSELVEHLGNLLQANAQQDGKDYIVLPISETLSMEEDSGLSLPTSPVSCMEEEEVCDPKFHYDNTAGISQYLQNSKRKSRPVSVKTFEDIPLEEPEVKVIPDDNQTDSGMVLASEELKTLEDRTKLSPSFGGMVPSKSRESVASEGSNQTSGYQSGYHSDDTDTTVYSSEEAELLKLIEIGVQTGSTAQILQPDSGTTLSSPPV

Target: VEGFR2 (Homo sapiens, UniProt P35968)
Experiment: Inhibition against VEGFR2 kinase (receptor tyrosine kinase activity, HTRF method)
Assay type: biochemical
Settings: read-out: IC50 (concentration required for 50% inhibition of VEGFR2 kinase activity), His6-VEGFR2 cytoplasmic domain, biotin-poly(GT) substrate, ATP, 30° C. 10 minutes
Procedure: Measurement of Inhibition Against Receptor Tyrosine Kinase Activity
This assay is used to determine inhibition of a test substance on tyrosine kinase activity. DNA coding for the cytoplasmic domain of VEGFR2 is obtained by total cDNA synthesis (Edwards M, International Biotechnology Lab 5(3), 19–25, 1987) or by cloning. Expression in an appropriate expression system can produce a polypeptide with tyrosine kinase activity. […]
The supernatant was added to a Ni—NTA agarose column (3 ml, purchased from Qiagen) equilibrated with Buffer A {20 mM Tris-HCl (pH 8.5), 5 mM 2-mercaptoethanol, 500 mM KCl, 20 mM imidazole, 10% (v/v) glycerol}. […] After dialysis, it was supplied for SDS-electrophoresis, and the recombinant protein (His6-VEGFR2, cytoplasmic domain of VEGFR2 fused with 6 histidine residues at the N-terminus) detected at a molecular weight of approximately 100 kDa with Coumassie Brilliant Blue staining was assayed using BSA (bovine serum albumin, purchased from Sigma Co.) as the standard substance, and stored at −80° C. until use. […]

With `CCN(CC)CCCOc1cc2nccc(Oc3ccc(NC(=O)Nc4ccc(OC)cc4)cc3)c2cc1C#N` the IC50 was 18 nM.
